Laboratory results taken from patent US4499093A, “Interferon induction method” (Dso "Pharmachim", priority 1982, dated 1985).

System: interferon
Test: identification of dipyridamole-induced interferon (pH, heat, enzyme resistance tests)

SMILES: OCCN(CCO)c1nc(N2CCCCC2)c2nc(N(CCO)CCO)nc(N3CCCCC3)c2n1 [Dipyridamole, 2,6-bis (diethanolamino)-4,8-dipiperidinopyramido [5,4-d]pyrimidine]
- Titre of dipyridamole-induced interferon (L-cells, 56° C., 30 min): 8 (4) IU/ml
- Titre of dipyridamole-induced interferon (L-cells, 56° C., 60 min): 4 IU/ml
- Titre of dipyridamole-induced interferon (L-cells, 65° C., 30 min): 4 IU/ml
- Titre of dipyridamole-induced interferon (L-cells, 75° C., 30 min): 4 IU/ml
- Titre of dipyridamole-induced interferon (L-cells, Controls): 16 IU/ml
- Titre of dipyridamole-induced interferon (L-cells, Desoxyribonuclease): 16 IU/ml
- Titre of dipyridamole-induced interferon (L-cells, Ether): 16 (8) IU/ml
- Titre of dipyridamole-induced interferon (L-cells, Ribonuclease): 16 IU/ml
- Titre of dipyridamole-induced interferon (L-cells, Trypsin): < 4 IU/ml
- Titre of dipyridamole-induced interferon (L-cells, pH 2.0, 18 h): 16 IU/ml
- Titre of dipyridamole-induced interferon (Mouse peritoneal leucocytes, 56° C., 30 min): 16 IU/ml
- Titre of dipyridamole-induced interferon (Mouse peritoneal leucocytes, 56° C., 60 min): 8 IU/ml
- Titre of dipyridamole-induced interferon (Mouse peritoneal leucocytes, 65° C., 30 min): 8 (16) IU/ml
- Titre of dipyridamole-induced interferon (Mouse peritoneal leucocytes, 75° C., 30 min): < 4 IU/ml
- Titre of dipyridamole-induced interferon (Mouse peritoneal leucocytes, Controls): 32 (16) IU/ml
- Titre of dipyridamole-induced interferon (Mouse peritoneal leucocytes, Desoxyribonuclease): 32 IU/ml
- Titre of dipyridamole-induced interferon (Mouse peritoneal leucocytes, Ether): 32 IU/ml
- Titre of dipyridamole-induced interferon (Mouse peritoneal leucocytes, Ribonuclease): 32 IU/ml
- Titre of dipyridamole-induced interferon (Mouse peritoneal leucocytes, Trypsin): < 4 IU/ml
- Titre of dipyridamole-induced interferon (Mouse peritoneal leucocytes, pH 2.0, 18 h): 32 IU/ml
- Titre of dipyridamole-induced interferon (Mouse serum (i.v.), 56° C., 30 min): 128 IU/ml
- Titre of dipyridamole-induced interferon (Mouse serum (i.v.), 56° C., 60 min): 8 IU/ml
- Titre of dipyridamole-induced interferon (Mouse serum (i.v.), 65° C., 30 min): 4 IU/ml
- Titre of dipyridamole-induced interferon (Mouse serum (i.v.), Controls): 128 IU/ml
- Titre of dipyridamole-induced interferon (Mouse serum (i.v.), Desoxyribonuclease): 128 IU/ml
- Titre of dipyridamole-induced interferon (Mouse serum (i.v.), Ribonuclease): 128 IU/ml
- Titre of dipyridamole-induced interferon (Mouse serum (i.v.), Trypsin): < 4 IU/ml
- Titre of dipyridamole-induced interferon (Mouse serum (i.v.), pH 2.0, 18 h): 128 IU/ml
